Results published in the supplement of paper PMC12823440, “Inhibitors supercharge kinase turnover through native proteolytic circuits” (Nature, 2025).
The list shows a part of the results. Hit calls seldom repeat between salt and free forms of one compound.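 Kinases, fused to nanoluciferase, were expressed in K562 cells; luminescence was measured every 4 h from 2 to 18 h as percent of control (DMSO = 100%, positive control = 0%). A time point is decreased if signal falls significantly (2 sigma). Hits were called by the authors by a rule that is not shown; the count of time points alone does not decide it.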

Protein sequences, listed by entry. Tags and fused reporters are not part of them. Lines headed by an entry give the natural chain unless they say otherwise; changes in a name come on top.
UniProt Q8IWU2: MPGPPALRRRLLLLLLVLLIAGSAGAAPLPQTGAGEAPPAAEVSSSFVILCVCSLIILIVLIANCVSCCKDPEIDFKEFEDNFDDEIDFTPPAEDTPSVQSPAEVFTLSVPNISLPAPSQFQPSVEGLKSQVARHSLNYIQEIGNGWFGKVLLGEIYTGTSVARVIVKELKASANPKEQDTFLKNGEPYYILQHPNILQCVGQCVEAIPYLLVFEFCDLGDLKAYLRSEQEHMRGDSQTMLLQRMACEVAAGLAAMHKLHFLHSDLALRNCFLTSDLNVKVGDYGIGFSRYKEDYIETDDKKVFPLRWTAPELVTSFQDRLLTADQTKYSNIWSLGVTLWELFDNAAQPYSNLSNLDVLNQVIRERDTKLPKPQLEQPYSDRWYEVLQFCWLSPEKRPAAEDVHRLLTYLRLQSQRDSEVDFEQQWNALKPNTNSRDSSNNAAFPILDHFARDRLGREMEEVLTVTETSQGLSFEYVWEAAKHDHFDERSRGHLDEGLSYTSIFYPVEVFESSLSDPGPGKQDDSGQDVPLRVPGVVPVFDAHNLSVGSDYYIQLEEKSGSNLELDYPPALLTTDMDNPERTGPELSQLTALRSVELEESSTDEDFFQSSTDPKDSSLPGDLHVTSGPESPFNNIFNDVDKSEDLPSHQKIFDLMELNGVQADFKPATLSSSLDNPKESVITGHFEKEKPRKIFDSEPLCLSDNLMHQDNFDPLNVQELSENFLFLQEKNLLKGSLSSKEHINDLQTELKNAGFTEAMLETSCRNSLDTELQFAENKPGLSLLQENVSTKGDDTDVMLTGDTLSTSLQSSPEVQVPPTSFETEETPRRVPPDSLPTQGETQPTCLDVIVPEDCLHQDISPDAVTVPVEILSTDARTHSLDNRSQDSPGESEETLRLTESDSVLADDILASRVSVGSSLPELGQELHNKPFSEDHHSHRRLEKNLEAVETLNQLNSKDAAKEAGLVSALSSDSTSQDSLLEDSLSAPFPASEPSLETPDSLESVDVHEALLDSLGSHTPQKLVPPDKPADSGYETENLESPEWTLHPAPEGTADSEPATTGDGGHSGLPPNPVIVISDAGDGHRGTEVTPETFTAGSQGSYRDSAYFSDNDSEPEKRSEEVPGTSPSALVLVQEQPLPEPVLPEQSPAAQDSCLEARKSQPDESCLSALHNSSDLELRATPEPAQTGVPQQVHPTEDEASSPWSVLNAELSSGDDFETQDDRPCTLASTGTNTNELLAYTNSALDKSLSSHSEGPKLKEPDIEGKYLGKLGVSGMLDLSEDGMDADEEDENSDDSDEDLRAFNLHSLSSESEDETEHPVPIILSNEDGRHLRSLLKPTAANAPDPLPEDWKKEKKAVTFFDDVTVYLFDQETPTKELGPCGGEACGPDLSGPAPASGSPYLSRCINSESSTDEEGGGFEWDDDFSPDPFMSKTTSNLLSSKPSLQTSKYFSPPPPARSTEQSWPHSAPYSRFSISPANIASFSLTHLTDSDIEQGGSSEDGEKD
UniProt P49137, whole entry, looked up: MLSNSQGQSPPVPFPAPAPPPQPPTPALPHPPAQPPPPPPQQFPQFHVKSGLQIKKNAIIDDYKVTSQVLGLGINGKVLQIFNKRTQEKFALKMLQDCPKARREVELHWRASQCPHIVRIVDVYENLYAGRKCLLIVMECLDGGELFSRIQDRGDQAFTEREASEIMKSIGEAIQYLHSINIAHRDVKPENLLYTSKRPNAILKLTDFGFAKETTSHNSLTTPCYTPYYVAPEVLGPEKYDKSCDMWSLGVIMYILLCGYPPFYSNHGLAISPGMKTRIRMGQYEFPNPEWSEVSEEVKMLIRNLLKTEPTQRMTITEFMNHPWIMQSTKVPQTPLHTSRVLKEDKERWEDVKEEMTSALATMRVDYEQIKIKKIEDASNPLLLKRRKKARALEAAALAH
UniProt O96013: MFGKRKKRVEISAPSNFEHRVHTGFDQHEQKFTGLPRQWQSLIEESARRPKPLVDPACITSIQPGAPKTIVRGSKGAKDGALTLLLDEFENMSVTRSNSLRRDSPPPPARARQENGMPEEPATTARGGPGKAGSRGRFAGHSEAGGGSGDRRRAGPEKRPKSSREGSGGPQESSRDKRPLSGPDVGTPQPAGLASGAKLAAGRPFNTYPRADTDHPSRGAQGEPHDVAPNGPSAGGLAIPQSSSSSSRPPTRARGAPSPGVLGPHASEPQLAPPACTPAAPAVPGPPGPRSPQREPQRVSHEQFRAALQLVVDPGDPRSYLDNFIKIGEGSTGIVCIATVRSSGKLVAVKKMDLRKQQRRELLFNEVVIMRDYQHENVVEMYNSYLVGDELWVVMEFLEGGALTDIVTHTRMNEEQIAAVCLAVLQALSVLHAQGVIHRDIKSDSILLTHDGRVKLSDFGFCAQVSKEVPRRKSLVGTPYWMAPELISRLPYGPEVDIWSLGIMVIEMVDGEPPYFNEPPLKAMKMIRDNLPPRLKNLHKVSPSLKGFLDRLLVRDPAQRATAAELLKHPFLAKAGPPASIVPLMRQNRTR
UniProt Q96KB5: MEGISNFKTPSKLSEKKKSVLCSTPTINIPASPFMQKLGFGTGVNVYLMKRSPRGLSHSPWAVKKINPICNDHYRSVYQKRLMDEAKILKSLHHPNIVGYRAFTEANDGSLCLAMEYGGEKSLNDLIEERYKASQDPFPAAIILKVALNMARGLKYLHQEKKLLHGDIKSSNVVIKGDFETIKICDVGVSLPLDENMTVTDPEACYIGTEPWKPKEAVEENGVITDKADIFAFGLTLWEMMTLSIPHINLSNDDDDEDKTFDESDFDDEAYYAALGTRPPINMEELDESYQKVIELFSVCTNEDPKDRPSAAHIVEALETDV
UniProt Q15118, whole entry, looked up: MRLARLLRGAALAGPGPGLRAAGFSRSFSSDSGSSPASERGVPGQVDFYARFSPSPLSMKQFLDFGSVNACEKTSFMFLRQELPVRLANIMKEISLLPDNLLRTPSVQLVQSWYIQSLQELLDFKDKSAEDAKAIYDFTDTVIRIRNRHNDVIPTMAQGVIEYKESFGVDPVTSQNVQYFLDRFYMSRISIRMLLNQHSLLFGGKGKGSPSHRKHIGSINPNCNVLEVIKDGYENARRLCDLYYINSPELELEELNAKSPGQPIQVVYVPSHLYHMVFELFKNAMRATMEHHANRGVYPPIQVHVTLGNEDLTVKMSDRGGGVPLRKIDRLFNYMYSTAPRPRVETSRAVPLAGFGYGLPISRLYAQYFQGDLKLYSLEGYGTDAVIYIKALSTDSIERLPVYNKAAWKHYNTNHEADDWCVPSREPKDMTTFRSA
UniProt P42356, whole entry, looked up: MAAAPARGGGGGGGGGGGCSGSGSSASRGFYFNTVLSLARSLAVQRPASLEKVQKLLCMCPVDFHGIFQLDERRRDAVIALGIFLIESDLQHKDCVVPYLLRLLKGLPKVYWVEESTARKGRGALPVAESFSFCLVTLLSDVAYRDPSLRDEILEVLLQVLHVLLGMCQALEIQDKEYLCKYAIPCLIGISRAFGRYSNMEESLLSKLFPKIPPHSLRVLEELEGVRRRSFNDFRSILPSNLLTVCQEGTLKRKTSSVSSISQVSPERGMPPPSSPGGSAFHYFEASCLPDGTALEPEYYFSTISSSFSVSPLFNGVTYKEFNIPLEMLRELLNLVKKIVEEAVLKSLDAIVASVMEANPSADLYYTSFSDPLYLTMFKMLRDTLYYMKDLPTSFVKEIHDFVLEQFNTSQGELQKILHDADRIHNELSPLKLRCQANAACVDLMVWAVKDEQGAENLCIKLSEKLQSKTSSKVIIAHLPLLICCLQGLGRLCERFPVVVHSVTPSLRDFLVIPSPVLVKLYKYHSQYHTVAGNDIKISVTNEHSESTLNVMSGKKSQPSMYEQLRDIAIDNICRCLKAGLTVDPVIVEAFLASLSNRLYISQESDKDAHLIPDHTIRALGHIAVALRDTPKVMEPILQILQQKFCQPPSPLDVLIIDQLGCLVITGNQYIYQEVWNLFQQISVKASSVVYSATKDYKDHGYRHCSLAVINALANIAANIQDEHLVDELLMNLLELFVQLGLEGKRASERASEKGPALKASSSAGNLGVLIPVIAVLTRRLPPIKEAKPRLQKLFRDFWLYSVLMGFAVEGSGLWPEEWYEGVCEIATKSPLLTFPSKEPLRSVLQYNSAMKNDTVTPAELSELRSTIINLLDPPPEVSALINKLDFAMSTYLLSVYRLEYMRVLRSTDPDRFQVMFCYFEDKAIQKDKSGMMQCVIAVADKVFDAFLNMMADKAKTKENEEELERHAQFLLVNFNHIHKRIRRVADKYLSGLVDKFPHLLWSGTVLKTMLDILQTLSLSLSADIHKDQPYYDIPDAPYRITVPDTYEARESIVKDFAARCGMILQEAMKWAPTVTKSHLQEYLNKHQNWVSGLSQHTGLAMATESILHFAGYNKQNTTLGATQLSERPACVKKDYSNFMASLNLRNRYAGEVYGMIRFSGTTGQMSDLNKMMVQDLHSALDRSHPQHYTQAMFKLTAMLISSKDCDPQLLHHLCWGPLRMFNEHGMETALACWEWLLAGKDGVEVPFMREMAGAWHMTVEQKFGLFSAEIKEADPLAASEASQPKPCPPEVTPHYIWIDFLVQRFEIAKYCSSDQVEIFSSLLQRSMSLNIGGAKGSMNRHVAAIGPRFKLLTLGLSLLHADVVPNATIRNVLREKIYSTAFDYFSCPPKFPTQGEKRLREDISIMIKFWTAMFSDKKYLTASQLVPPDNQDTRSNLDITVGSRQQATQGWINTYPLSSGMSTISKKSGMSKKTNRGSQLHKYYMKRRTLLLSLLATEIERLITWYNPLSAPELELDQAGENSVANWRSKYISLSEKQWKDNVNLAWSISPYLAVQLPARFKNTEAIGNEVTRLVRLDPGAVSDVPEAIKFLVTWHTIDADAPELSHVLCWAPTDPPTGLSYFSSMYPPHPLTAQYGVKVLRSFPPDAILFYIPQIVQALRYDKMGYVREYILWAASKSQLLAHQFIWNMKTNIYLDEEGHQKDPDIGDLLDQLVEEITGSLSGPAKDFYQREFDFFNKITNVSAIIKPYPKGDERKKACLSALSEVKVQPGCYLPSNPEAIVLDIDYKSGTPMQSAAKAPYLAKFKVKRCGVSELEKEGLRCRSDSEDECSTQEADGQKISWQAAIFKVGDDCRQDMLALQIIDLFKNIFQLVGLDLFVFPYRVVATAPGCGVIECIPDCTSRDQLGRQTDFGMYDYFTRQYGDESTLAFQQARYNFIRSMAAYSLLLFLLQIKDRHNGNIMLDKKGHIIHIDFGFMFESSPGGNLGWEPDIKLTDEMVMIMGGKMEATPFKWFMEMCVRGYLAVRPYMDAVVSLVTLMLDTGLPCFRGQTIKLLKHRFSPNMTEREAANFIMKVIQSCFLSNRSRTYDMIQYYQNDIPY
UniProt P53350, whole entry: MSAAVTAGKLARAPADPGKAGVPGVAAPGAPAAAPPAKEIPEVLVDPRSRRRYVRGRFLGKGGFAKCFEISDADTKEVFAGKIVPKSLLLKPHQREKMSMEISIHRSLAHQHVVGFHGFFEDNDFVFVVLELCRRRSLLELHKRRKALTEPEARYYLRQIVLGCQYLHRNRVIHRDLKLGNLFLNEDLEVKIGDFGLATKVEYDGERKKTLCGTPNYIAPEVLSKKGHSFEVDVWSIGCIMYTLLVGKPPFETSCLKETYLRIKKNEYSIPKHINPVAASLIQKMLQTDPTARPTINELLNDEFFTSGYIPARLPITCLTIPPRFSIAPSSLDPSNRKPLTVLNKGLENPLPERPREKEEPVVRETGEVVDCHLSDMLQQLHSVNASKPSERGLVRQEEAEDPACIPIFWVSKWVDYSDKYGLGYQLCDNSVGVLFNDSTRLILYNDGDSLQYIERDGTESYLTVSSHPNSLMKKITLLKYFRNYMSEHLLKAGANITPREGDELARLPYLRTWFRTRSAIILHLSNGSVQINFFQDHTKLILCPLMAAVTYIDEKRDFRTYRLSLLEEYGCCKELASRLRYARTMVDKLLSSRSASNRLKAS
UniProt Q13131: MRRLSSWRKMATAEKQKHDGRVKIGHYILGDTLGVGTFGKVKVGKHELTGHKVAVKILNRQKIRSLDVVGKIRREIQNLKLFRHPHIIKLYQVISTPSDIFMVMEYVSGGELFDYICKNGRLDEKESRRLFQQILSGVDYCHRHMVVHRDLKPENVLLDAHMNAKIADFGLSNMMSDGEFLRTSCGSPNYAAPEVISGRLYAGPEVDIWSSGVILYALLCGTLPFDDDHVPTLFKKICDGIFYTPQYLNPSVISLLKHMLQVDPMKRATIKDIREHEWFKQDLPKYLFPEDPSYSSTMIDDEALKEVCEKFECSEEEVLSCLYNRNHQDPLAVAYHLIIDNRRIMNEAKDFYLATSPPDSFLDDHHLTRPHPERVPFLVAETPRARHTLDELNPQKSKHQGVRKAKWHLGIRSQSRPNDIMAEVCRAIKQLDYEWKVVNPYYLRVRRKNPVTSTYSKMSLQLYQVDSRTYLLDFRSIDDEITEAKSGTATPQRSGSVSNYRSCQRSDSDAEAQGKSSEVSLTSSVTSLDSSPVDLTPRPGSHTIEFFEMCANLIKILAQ

Experiments:
Assay in all cases: number of time points (of 5) at which kinase-Nluc abundance scored as decreased, DMSO-normalised (count); higher = more persistent destabilization
Conditions in all cases: K562; 2-18 h
LMTK2 = LMTK2 (UniProt Q8IWU2)
LYN = LYN (UniProt P07948)
MAP2K1 = MAP2K1 (UniProt Q02750)
MAP2K2 = MAP2K2 (UniProt P36507)
MAP4K2 = MAP4K2 (UniProt Q12851)
MAPK1 = MAPK1 (UniProt P28482)
MAPK4 = MAPK4 (UniProt P31152)
MAPKAPK2 = MAPKAPK2 (UniProt P49137)
MKNK1 = MKNK1 (UniProt Q9BUB5)
NTRK2 = NTRK2 (UniProt Q16620)
NTRK3 = NTRK3 (UniProt Q16288)
PAK4 = PAK4 (UniProt O96013)
PBK = PBK (UniProt Q96KB5)
PDGFRB = PDGFRB (UniProt P09619)
PDK1 = PDK1 (UniProt Q15118)
PDPK1 = PDPK1 (UniProt O15530)
PIK4CA = PIK4CA (UniProt P42356)
PIK4CB = PIK4CB (UniProt Q9UBF8)
PLK1 = PLK1 (UniProt P53350)
PRKAA1 = PRKAA1 (UniProt Q13131)

Measured: number of time points

COc1ccc(S(=O)(=O)NCc2ccc(C(=O)NCCc3ccc(Cl)cn3)cc2)cc1 (10 µM)
0: LMTK2 | LYN | MAP2K1 | MAP2K2 | MAP4K2 | MAPK1 | MAPK4 | MAPKAPK2 | MKNK1 | NTRK2 | NTRK3 | PAK4 | PBK | PDGFRB | PDK1 | PDPK1 | PIK4CA | PIK4CB | PLK1 | PRKAA1

O=C(O)c1cc(N(Cc2ccccc2O)Cc2ccccc2O)ccc1O [Lavendustin B] (10 µM)
0: LMTK2 | LYN | MAP2K1 | MAP2K2 | MAP4K2 | MAPK1 | MAPK4 | MAPKAPK2 | MKNK1 | NTRK2 | NTRK3 | PAK4 | PBK | PDGFRB | PDK1 | PDPK1 | PIK4CA | PIK4CB | PLK1 | PRKAA1

NC(=O)N1CCC(CC(=O)N2CCC([C@H]3c4ncc(Br)cc4CCc4cc(Cl)cc(Br)c43)CC2)CC1 [Lonafarnib] (2.5 µM)
0: LMTK2 | LYN | MAP2K1 | MAP2K2 | MAP4K2 | MAPK1 | MAPK4 | MAPKAPK2 | MKNK1 | NTRK2 | NTRK3 | PAK4 | PBK | PDGFRB | PDK1 | PDPK1 | PIK4CA | PIK4CB | PLK1 | PRKAA1

CCN(CC)CCC(=O)N1N=C(c2c(-c3ccccc3)c3cc(Br)ccc3[nH]c2=O)CC1c1ccc(Br)cc1 (stereo not given) (2.5 µM)
0: LMTK2 | LYN | MAP2K1 | MAP2K2 | MAP4K2 | MAPK1 | MAPK4 | MAPKAPK2 | MKNK1 | NTRK2 | NTRK3 | PAK4 | PBK | PDGFRB | PDK1 | PDPK1 | PIK4CA | PIK4CB | PLK1 | PRKAA1

Cn1cc(-c2c[nH]c3ncnc(N4CCOCC4)c23)cc1C#N (10 µM)
0: LMTK2 | LYN | MAP2K1 | MAP2K2 | MAP4K2 | MAPK1 | MAPK4 | MAPKAPK2 | MKNK1 | NTRK2 | NTRK3 | PAK4 | PBK | PDGFRB | PDK1 | PDPK1 | PIK4CA | PIK4CB | PLK1 | PRKAA1

CCCNC(=O)Nc1ccc(Oc2ncnc3cc(OC)c(OC)cc23)cc1Cl (2.5 µM)
0: LMTK2 | LYN | MAP2K1 | MAP2K2 | MAP4K2 | MAPK1 | MAPK4 | MAPKAPK2 | MKNK1 | NTRK2 | NTRK3 | PAK4 | PBK | PDGFRB | PDK1 | PDPK1 | PIK4CA | PIK4CB | PLK1 | PRKAA1

N[C@@H](CCC(=O)O)C(=O)N[C@@H](Cc1c[nH]c2ccccc12)C(=O)O [Oglufanide] (10 µM)
0: LMTK2 | LYN | MAP2K1 | MAP2K2 | MAP4K2 | MAPK1 | MAPK4 | MAPKAPK2 | MKNK1 | NTRK2 | NTRK3 | PAK4 | PBK | PDGFRB | PDK1 | PDPK1 | PIK4CA | PIK4CB | PLK1 | PRKAA1

COc1ccc(-c2coc3cc(O)ccc3c2=O)cc1 [Formononetin] (10 µM)
0: LMTK2 | LYN | MAP2K1 | MAP2K2 | MAP4K2 | MAPK1 | MAPK4 | MAPKAPK2 | MKNK1 | NTRK2 | NTRK3 | PAK4 | PBK | PDGFRB | PDK1 | PDPK1 | PIK4CA | PIK4CB | PLK1 | PRKAA1

C=CC(=O)N1CCC[C@H](n2c(=O)n(-c3ccc(Oc4ccccc4)cc3)c3c(N)ncnc32)C1 [ONO-4059 (analog)] (10 µM)
0: LMTK2 | LYN | MAP2K1 | MAP2K2 | MAP4K2 | MAPK1 | MAPK4 | MAPKAPK2 | MKNK1 | NTRK2 | NTRK3 | PAK4 | PBK | PDGFRB | PDK1 | PDPK1 | PIK4CA | PIK4CB | PLK1 | PRKAA1

CCn1c(=O)c(-c2cc[nH]n2)cc2c(C)nc(N)nc21 [Voxtalisib] (10 µM)
0: LMTK2 | LYN | MAP2K1 | MAP2K2 | MAP4K2 | MAPK1 | MAPK4 | MAPKAPK2 | MKNK1 | NTRK2 | NTRK3 | PAK4 | PBK | PDGFRB | PDK1 | PDPK1 | PIK4CA | PLK1 | PRKAA1
2: PIK4CB

CC(C)CCNC(=O)c1ccc2c(c1)nc(Nc1n[nH]c3ccc(-c4ccccc4OC(F)(F)F)cc13)n2C1CCC(O)CC1 (stereo not drawn) [IRAK inhibitor 4 (trans)] (10 µM)
0: LMTK2 | LYN | MAP2K1 | MAP2K2 | MAP4K2 | MAPK1 | MAPK4 | MAPKAPK2 | MKNK1 | NTRK2 | NTRK3 | PAK4 | PBK | PDGFRB | PDK1 | PDPK1 | PIK4CA | PIK4CB | PLK1 | PRKAA1

Part of the list above in order of length of the SMILES, rising:
COc1ccc(-c2coc3cc(O)ccc3c2=O)cc1 [Formononetin] (10 µM)
0: LMTK2 | LYN | MAP2K1 | MAP2K2 | MAP4K2 | MAPK1 | MAPK4 | MAPKAPK2 | MKNK1 | NTRK2 | NTRK3 | PAK4 | PBK | PDGFRB | PDK1 | PDPK1 | PIK4CA | PIK4CB | PLK1 | PRKAA1

CCn1c(=O)c(-c2cc[nH]n2)cc2c(C)nc(N)nc21 [Voxtalisib] (10 µM)
0: LMTK2 | LYN | MAP2K1 | MAP2K2 | MAP4K2 | MAPK1 | MAPK4 | MAPKAPK2 | MKNK1 | NTRK2 | NTRK3 | PAK4 | PBK | PDGFRB | PDK1 | PDPK1 | PIK4CA | PLK1 | PRKAA1
2: PIK4CB

C=CC(=O)N1CCC[C@H](n2c(=O)n(-c3ccc(Oc4ccccc4)cc3)c3c(N)ncnc32)C1 [ONO-4059 (analog)] (10 µM)
0: LMTK2 | LYN | MAP2K1 | MAP2K2 | MAP4K2 | MAPK1 | MAPK4 | MAPKAPK2 | MKNK1 | NTRK2 | NTRK3 | PAK4 | PBK | PDGFRB | PDK1 | PDPK1 | PIK4CA | PIK4CB | PLK1 | PRKAA1

Next part.

CN1CCC(c2ccccc2CC(C)(C)Nc2nc(N3CCOCC3)nc(-n3c(C(F)F)nc4ccccc43)n2)CC1 [Zandelisib] (10 µM)
0: LMTK2 | LYN | MAP2K1 | MAP2K2 | MAP4K2 | MAPK1 | MAPK4 | MAPKAPK2 | MKNK1 | NTRK2 | NTRK3 | PAK4 | PBK | PDGFRB | PDK1 | PDPK1 | PIK4CA | PIK4CB | PLK1 | PRKAA1

COc1ccc2cc3[n+](cc2c1OC)CCc1cc(O)c(O)cc1-3 [Demethyleneberberine] (10 µM)
0: LMTK2 | LYN | MAP2K1 | MAP2K2 | MAP4K2 | MAPK1 | MAPK4 | MAPKAPK2 | MKNK1 | NTRK2 | NTRK3 | PAK4 | PBK | PDGFRB | PDK1 | PDPK1 | PIK4CA | PIK4CB | PLK1 | PRKAA1

Cc1cc(Nc2nc(CC3(C(=O)O)CCN(C(=O)c4cccc(Cl)c4Cl)CC3)ccc2F)n[nH]1 (10 µM)
0: LMTK2 | LYN | MAP2K1 | MAP2K2 | MAP4K2 | MAPK1 | MAPK4 | MAPKAPK2 | NTRK2 | PAK4 | PBK | PDK1 | PIK4CA | PLK1 | PRKAA1
2: NTRK3 | PDGFRB | PIK4CB
1: PDPK1
4: MKNK1

C=CCc1ccc(O)c(-c2ccc(O)c(CC=C)c2)c1 [Honokiol] (10 µM)
0: LMTK2 | LYN | MAP2K1 | MAP2K2 | MAP4K2 | MAPK1 | MAPK4 | MAPKAPK2 | MKNK1 | NTRK2 | NTRK3 | PAK4 | PBK | PDGFRB | PDK1 | PDPK1 | PIK4CA | PIK4CB | PLK1 | PRKAA1

Cc1cc(-c2ccnc(Nc3cnn(C)c3)n2)ccc1CNC(=O)N1CC(OC(C)C)C1 (10 µM)
0: LMTK2 | LYN | MAP2K1 | MAP2K2 | MAP4K2 | MAPK1 | MAPK4 | MAPKAPK2 | MKNK1 | NTRK2 | NTRK3 | PAK4 | PBK | PDGFRB | PDK1 | PDPK1 | PIK4CA | PIK4CB | PLK1 | PRKAA1

O=C(O)c1cc(=O)c2c(OCC(O)COc3cccc4oc(C(=O)O)cc(=O)c34)cccc2o1 [Cromolyn (sodium)] (10 µM)
0: LMTK2 | LYN | MAP2K1 | MAP2K2 | MAP4K2 | MAPK1 | MAPK4 | MAPKAPK2 | MKNK1 | NTRK2 | NTRK3 | PAK4 | PBK | PDGFRB | PDK1 | PDPK1 | PIK4CA | PIK4CB | PLK1 | PRKAA1
